Test results from PubChem BioAssay AID330 (DTP/NCI, 2004).
The list is a part of this screen's results and no random one: it is rich in T/C values a quarter to a half above the control, in often repeated tests (any T/C) and in doses without a T/C. Further doses and runs are listed elsewhere. T/C gives the treated animals as a percentage of the vehicle group. Some doses have a count of surviving animals in place of a T/C: the source holds a T/C of zero for them, seemingly a mark for toxic or unscored doses. Some doses without a T/C left all or most animals alive at the check, yet need not have been tolerated: the source hardly ever lists a survival T/C far under the control, and the zero likely stands for such cases as well. Survivors were counted at the toxicity check, usually on the fifth day, unless a day is given; later deaths do not show. Schedules are NCI's codes, taken here to give the interval after Q, in days (D) or hours (H), and the number of doses after X. Some entries hold several experiments; the values are given in rising order. Where survival is the endpoint, this PubChem deposit counts one and a half times the control or more as active, and values a quarter to a half above the control carry no call in these data; other NCI protocols may use other cut-offs.

System: P388 leukemia ip, CD2F1 mice, survival T/C
Assay: NCI In Vivo Anticancer Drug Screen. Data for tumor model P388 Leukemia (intraperitoneal) in CD2F1 (CDF1) mice
Conditions: T/C endpoint: median survival time, higher T/C = longer survival
[1] = dose: 12.5 mg/kg/injection, schedule: Q01DX001 (ip), vehicle: saline with Tween-80

Structure (SMILES) | survivor count (dose: 5.0 mg/kg/injection, schedule: Q01DX009 (ip), vehicle: saline) | survivor count (dose: 10.0 mg/kg/injection, schedule: Q01DX009 (ip), vehicle: saline) | T/C [1] | survivor count [1] | survivor count (dose: 25.0 mg/kg/injection, schedule: Q01DX001 (ip), vehicle: saline with Tween-80) | survivor count (dose: 50.0 mg/kg/injection, schedule: Q01DX001 (ip), vehicle: saline with Tween-80)
CNC1C(O)C2Oc3c(cc(O)c4c3C(=O)c3cc5c(c(O)c3C4=O)C(OC)CC(C)(O)C5)C(C)(O2)C1O (stereo unspecified) | 6 of 6 | 6 of 6 |  |  |  | 
CCC[CH2][Sn]([CH2]CCC)([O]S(=O)c1ccccc1)[O]S(=O)c1ccccc1 (stereo unspecified) |  |  | 130 % of control | 4 of 6 | 0 of 6 and 3 of 6 | 0 of 6
